Source: US20210163580A1 (NATIONAL HEALTH RESEARCH INSTITUTES, published 2021)
Results are given in words; binding and its absence hold for the method and conditions named. Some results given as binding are weak or reduced against the parent protein; the word gives no strength. For some assays here: Where a sequence is shown, tags or fusion partners need not be part of it.

Legend:
[1] = biological target: T1, RSPO3(33-210)-Fc (Homo sapiens) (UniProt Q9BXY4); assay: ELISA: fragment coated on the plate, biotinylated hB1, streptavidin-HRP, OD 450 [A), left graph]
T1 sequence (fusion chain, looked up): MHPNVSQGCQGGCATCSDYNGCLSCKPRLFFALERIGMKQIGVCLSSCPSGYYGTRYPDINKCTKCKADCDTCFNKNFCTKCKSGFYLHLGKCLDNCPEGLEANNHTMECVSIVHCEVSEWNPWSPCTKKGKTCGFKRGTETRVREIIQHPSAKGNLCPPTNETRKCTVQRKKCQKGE

[2] = biological target: T2, RSPO3(22-115)-his-Fc (Homo sapiens) (UniProt Q9BXY4); assay: ELISA: fragment coated on the plate, biotinylated hB1, streptavidin-HRP, OD 450 [A), right graph]
T2 sequence (fusion chain, looked up): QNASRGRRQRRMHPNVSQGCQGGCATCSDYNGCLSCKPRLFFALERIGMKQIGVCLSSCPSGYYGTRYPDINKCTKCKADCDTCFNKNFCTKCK

[3] = biological target: T3, RSPO3(22-86)-his-Fc (Homo sapiens) (UniProt Q9BXY4); assay: as above
T3 sequence (fusion chain, looked up): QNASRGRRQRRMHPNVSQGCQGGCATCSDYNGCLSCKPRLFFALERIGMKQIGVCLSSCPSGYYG

[4] = biological target: T4, RSPO3 22-144 (Homo sapiens) (UniProt Q9BXY4); assay: ELISA: fragment coated on the plate, biotinylated hB1, streptavidin-HRP, OD 450 [A), middle graph]
T4 sequence (single chain, looked up): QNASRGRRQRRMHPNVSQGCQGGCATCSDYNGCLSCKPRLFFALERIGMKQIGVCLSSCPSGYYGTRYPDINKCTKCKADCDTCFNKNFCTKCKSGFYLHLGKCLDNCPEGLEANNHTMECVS

[5] = biological target: T5, RSPO3 22-202 (Homo sapiens) (UniProt Q9BXY4); assay: as above
T5 sequence (single chain, looked up): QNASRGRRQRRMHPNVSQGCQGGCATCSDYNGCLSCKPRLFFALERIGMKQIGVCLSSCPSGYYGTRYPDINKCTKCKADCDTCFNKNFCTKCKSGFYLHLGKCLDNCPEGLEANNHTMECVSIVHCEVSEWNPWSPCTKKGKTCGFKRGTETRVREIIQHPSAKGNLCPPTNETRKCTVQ

- binding [1]: binds
- binding [2]: binds
- binding [3]: binds
- binding [4]: binds
- binding [5]: binds
B1: humanized anti-RSPO3 antibody hB1 (antibody, V domains shown)
VH: QIQLQESGPGLVKPSESLSLTCSVTGYSITSGYYWNWIRQFPGNGLEWMGYISYDGTNNYNPSLKDRISITRDTSKNQFFLKLNSVTAADTATYYCSVLLIQYFNIWGKGTTVTVSS
VL: DIQMTQSPSSLSASVGERVTITCRTSESVNNFLAWFHQKPGKSPKLLVYHAKTLADGVSSRFSGSGSGTQYSLKINSLQPEDFGNYYCQHFWSIPWTFGGGTKLEIKR
notes: Humanized from murine B1
